In paper PMC7819943, “Rice protein-binding microarrays: a tool to detect cis-acting elements near promoter regions in rice”:
The other results are listed elsewhere or left out.

These sequences were tested against T1, OsSMF1 (Oryza sativa, UniProt Q6ZLB0 1-436) (assay: protein-binding microarray (RPBM); PBS, 2% BSA, 51.3 ng/ul salmon testes DNA, 50 uM zinc acetate, 200 nM TF, 25 C, 1 h; high values mean tight binding). Conditions: protein: recombinant; tags: N-terminal polyhistidine and DsRed monomer fusion (pET32a); chain copies: 2; label: CyDye5-dUTP incorporated in the synthesized complementary strand; 3' TTTTT single-stranded linker to array surface; dsDNA, one strand shown.
T1 sequence: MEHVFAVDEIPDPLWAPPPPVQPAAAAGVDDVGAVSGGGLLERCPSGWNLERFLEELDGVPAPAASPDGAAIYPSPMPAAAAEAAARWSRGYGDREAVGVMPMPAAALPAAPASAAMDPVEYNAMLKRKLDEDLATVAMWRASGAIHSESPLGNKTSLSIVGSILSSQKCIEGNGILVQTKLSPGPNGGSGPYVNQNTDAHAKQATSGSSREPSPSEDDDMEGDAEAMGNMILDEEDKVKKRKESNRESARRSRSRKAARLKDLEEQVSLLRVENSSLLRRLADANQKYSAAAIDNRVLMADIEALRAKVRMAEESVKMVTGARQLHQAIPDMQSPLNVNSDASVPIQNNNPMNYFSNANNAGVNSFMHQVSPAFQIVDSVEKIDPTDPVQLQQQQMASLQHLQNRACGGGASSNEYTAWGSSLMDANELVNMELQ
Method in brief: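 Transcription factors were made in E. coli BL21-CodonPlus as N-terminal fusions to a polyhistidine tag and DsRed, then purified on Ni–NTA. After primer extension with Cy5-dUTP and blocking with 2% BSA, a custom Agilent array was exposed for 1 h at 25 °C to 200 nM protein in PBS, 2% BSA, salmon testes DNA and 50 µM zinc acetate. Washed arrays were scanned on an Axon 4000B, and the binding signal is per-feature fluorescence intensity in arbitrary units.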

| Sequence | binding signal |
| --- | --- |
| CTTGCCGTCGACGCGAAGGAACCGCCACCCGACGTCAGCTCGGAGTCACCTAGTGCAG | 5610 fluorescence intensity (a.u.) |
| CACTGGCCGAAAGTCCATTTTGCTTGTGCAAGCCATGTGGCGGAGTCACCTAGTGCAG | 3650 fluorescence intensity (a.u.) |
| TCGAGTGTCGCGTCGGCTAATCGGAGTGTACAGTTGTGCACGGAGTCACCTAGTGCAG | 3290 fluorescence intensity (a.u.) |
| ACAGTGTGGCTGACGCCCTGCCGGTTTCTGCCGCCTCACGCGGAGTCACCTAGTGCAG | 3530 fluorescence intensity (a.u.) |
| GTTCTCCTATACAACTCCACTTGTCATTAGTCATGCACTGCGGAGTCACCTAGTGCAG | 4750 fluorescence intensity (a.u.) |
| CCAGTACATTTTGTACTACTACTTCGAACGGGCATGGTCGCGGAGTCACCTAGTGCAG | 29700 fluorescence intensity (a.u.) |
| GCTCTATCCAATCTCCCACATCAGCCACACCATCAAAAGCCGGAGTCACCTAGTGCAG | 4520 fluorescence intensity (a.u.) |
| TGCCATCACGTTTTGTGTTTTGAAGTGTTACTATAACACACGGAGTCACCTAGTGCAG | 3250 fluorescence intensity (a.u.) |
| TTTGGTGGCTATGGCTACGGAATTATGCTTCTGACTTCTGCGGAGTCACCTAGTGCAG | 5440 fluorescence intensity (a.u.) |
| TTAGGCTTGGGAGGAGAACTGCAGGGTGTGACATCATACTCGGAGTCACCTAGTGCAG | 4750 fluorescence intensity (a.u.) |
| TGGAGTGCAACCGATGATTCAAGACGTGAACCCGTTCCATCGGAGTCACCTAGTGCAG | 3490 fluorescence intensity (a.u.) |
| CCTTCACGGGCAAACCTCACAACTCACCTGCTGCTGCTATCGGAGTCACCTAGTGCAG | 3430 fluorescence intensity (a.u.) |
| ATACTGAATACGTCACTAATGCACTTTGAATTTGTTGTTGCGGAGTCACCTAGTGCAG | 11800 fluorescence intensity (a.u.) |
| AGCCTAGCCTCGCCGCCACCGCTTCCTCCTCCGTGGCACTCGGAGTCACCTAGTGCAG | 4120 fluorescence intensity (a.u.) |
| CAATAGTGTAGCTGATGGCTACTACTGCCCCGTTGGCATCCGGAGTCACCTAGTGCAG | 4760 fluorescence intensity (a.u.) |
| CTGCGCCCGCATGAGTCATGACGCCATGCGCCGCGTCCCGCGGAGTCACCTAGTGCAG | 7370 fluorescence intensity (a.u.) |
| TGACCACACATTGCATCCGTCACCACCTTCTTCTAATTAACGGAGTCACCTAGTGCAG | 3490 fluorescence intensity (a.u.) |
| TGCCTTCTGATTCTGGATCCCTGATGTTATATGTGTGCACCGGAGTCACCTAGTGCAG | 36700 fluorescence intensity (a.u.) |
| GTGGAGTGGCGGTGGTAGCTTGTGACAGTGGCTATAAGAGCGGAGTCACCTAGTGCAG | 3370 fluorescence intensity (a.u.) |
| TGGCGACCACGCCAGCACCATCGCATCACCCGTCTCCCTGCGGAGTCACCTAGTGCAG | 6360 fluorescence intensity (a.u.) |
| CTCCACGCCACGTTACCACCAGCAGTCCAGCGTGCCTCGCCGGAGTCACCTAGTGCAG | 7620 fluorescence intensity (a.u.) |

| Sequence | binding signal |
| --- | --- |
| GTCACTTGCTTCCAAGAACCCCGTGACAAGGCGGGAAGGACGGAGTCACCTAGTGCAG | 3710 fluorescence intensity (a.u.) |
| GAAAACTAGCTTTGTCATCATTTCCGCTTCGTTCCGGCTGCGGAGTCACCTAGTGCAG | 6720 fluorescence intensity (a.u.) |
| CGCCGCCACCATCAACCGCGTCCCTCGTGACCTCGTCTCGCGGAGTCACCTAGTGCAG | 3680 fluorescence intensity (a.u.) |
| GGCTGGTGGGGCATGCGAGATACCCGGGCCCACGTGTCGGCGGAGTCACCTAGTGCAG | 10000 fluorescence intensity (a.u.) |
| TACTCTGATTTTGTCCATTACCAGCTGCAAATGGACCAGCCGGAGTCACCTAGTGCAG | 34600 fluorescence intensity (a.u.) |
| GCGTGTAGCAATACTAAAGTTAGTGGTTGATGGTGGTCTGCGGAGTCACCTAGTGCAG | 3160 fluorescence intensity (a.u.) |
| TAAGTTCATCCTACACGTCAGGCACGATCCGAAGCGGCTACGGAGTCACCTAGTGCAG | 5780 fluorescence intensity (a.u.) |
| CGAGTGACTGACGTGTGGGCTCGGTGGTAGATAAACTCGGCGGAGTCACCTAGTGCAG | 6210 fluorescence intensity (a.u.) |
| TGATGAGTCAGAGCTATTTCCTCCATCGTATAAGATTTTACGGAGTCACCTAGTGCAG | 20400 fluorescence intensity (a.u.) |
| GGACCAATCACGTGGCGCCACGTAAGCGCAAGCCCGCCCCCGGAGTCACCTAGTGCAG | 33200 fluorescence intensity (a.u.) |
| ATCTCACCTCCCATATCTTATTTGCCAAACACACCCTTCCCGGAGTCACCTAGTGCAG | 3210 fluorescence intensity (a.u.) |
| TTATGAGTTTAGAGGGATGATTAGGATACATGGGAATTTTCGGAGTCACCTAGTGCAG | 22200 fluorescence intensity (a.u.) |
| TGACCAAAATTTGAAACTTTCAATACAATTATGAAACTTTCGGAGTCACCTAGTGCAG | 6370 fluorescence intensity (a.u.) |
| GGCGATCCAGTCTATCGGCGTGTCCAGGTAACTGTTCGTCCGGAGTCACCTAGTGCAG | 3150 fluorescence intensity (a.u.) |
| TCTGGGTTGAGATAAATTCCAGGTACGCGTGGAACTGTGTCGGAGTCACCTAGTGCAG | 25900 fluorescence intensity (a.u.) |
| AGCGCAATCACACGGGCGTGAGACCGCCACGTGTCCGGTGCGGAGTCACCTAGTGCAG | 14800 fluorescence intensity (a.u.) |
| TTTTGGGCCTCCTGTGACCTACATGGGCCGCACTTCTTTCCGGAGTCACCTAGTGCAG | 25900 fluorescence intensity (a.u.) |
| CCTCCAATCTCGTCACCAACCAAACCACCTCGCCGCAGATCGGAGTCACCTAGTGCAG | 4350 fluorescence intensity (a.u.) |
| GACGGAAACCGAAAGCAAATCCACGCCACCGGCGAGCCCGCGGAGTCACCTAGTGCAG | 3370 fluorescence intensity (a.u.) |
| GTTGTATTTACCTGCCTACTTGGTCATCAGAAGTACACCTCGGAGTCACCTAGTGCAG | 3170 fluorescence intensity (a.u.) |
| GTGGGTCCCACCTATGCCACGTGGCCGCATCCTGCCTCTCCGGAGTCACCTAGTGCAG | 28900 fluorescence intensity (a.u.) |

3 successive entries from above:

| Sequence | binding signal |
| --- | --- |
| GGCTGGTGGGGCATGCGAGATACCCGGGCCCACGTGTCGGCGGAGTCACCTAGTGCAG | 10000 fluorescence intensity (a.u.) |
| TACTCTGATTTTGTCCATTACCAGCTGCAAATGGACCAGCCGGAGTCACCTAGTGCAG | 34600 fluorescence intensity (a.u.) |
| GCGTGTAGCAATACTAAAGTTAGTGGTTGATGGTGGTCTGCGGAGTCACCTAGTGCAG | 3160 fluorescence intensity (a.u.) |
